Drawing on publication PMC11852049, “Impact of Hydrophobic, Hydrophilic, and Mucus-Binding Motifs on the Therapeutic Potential of Ceftazidime Analogs for Pulmonary Administration” (Antibiotics, 2025), this text covers TEER for 18 compounds.

This data set relates to human bronchial epithelial cells (HBECs). Put plainly: Transepithelial electrical resistance (TEER) of HBEC cultures at 24 h.
The mark [1] stands for this setting: compound set 1, lung donor N715, at 24 h.
Where [2] appears, read: compound set 1, lung donor N716, at 24 h.
Setting [3] is: compound set 1, lung donor N720, at 24 h.
[4] abbreviates: compound set 2, lung donor KC29, at 24 h.
The mark [5] stands for this setting: compound set 2, lung donor L2, at 24 h.
Setting [6] is: compound set 2, lung donor L8 (donor excluded from Papp analysis), at 24 h.
Where [7] appears, read: compound set 2, lung donor L224, at 24 h.

Take `CC(C)(O/N=C(\C(=O)N[C@@H]1C(=O)N2C(C(=O)[O-])=C(C[n+]3ccccc3)CS[C@H]12)c1csc(N)n1)C(=O)O` [Ceftazidime pentahydrate, ceftazidime pentahydrate, reference compound]: the TEER by setting is: under setting [1], 740 Ωcm^2; under setting [2], 590 Ωcm^2; under setting [3], 760 Ωcm^2; under setting [4], 812 Ωcm^2; under setting [5], 1008 Ωcm^2; under setting [6], 318 Ωcm^2. Moreover, under setting [7], the TEER was 477 Ωcm^2.
For `CCCCNC(=O)C(C)(C)O/N=C(/C(=O)N[C@@H]1C(=O)N2C(C(=O)[O-])=C(C[n+]3ccccc3)CS[C@H]12)c1csc(N)n1` [Compound 1, n-butyl-ceftazidime], the TEER reads like this: under setting [1], 690 Ωcm^2; under setting [2], 760 Ωcm^2; under setting [3], 670 Ωcm^2.
`CC(C)(O/N=C(/C(=O)N[C@@H]1C(=O)N2C(C(=O)[O-])=C(C[n+]3ccccc3)CS[C@H]12)c1csc(N)n1)C(=O)NCCc1ccccc1` [Compound 3]: the TEER by setting is: under setting [4], 1000 Ωcm^2; under setting [5], 1033 Ωcm^2; under setting [6], 379 Ωcm^2; under setting [7], 657 Ωcm^2.
With `CC(C)(O/N=C(/C(=O)N[C@@H]1C(=O)N2C(C(=O)[O-])=C(C[n+]3ccccc3)CS[C@H]12)c1csc(N)n1)C(=O)NCCc1cc(O)c(O)cc1Cl` [Compound 4], the TEER was 674 Ωcm^2 under setting [4], 935 Ωcm^2 under setting [5], 403 Ωcm^2 under setting [6] and 479 Ωcm^2 under setting [7].
On to `CC(C)(O/N=C(/C(=O)N[C@@H]1C(=O)N2C(C(=O)[O-])=C(C[n+]3ccccc3)CS[C@H]12)c1csc(N)n1)C(=O)NCCCS(=O)(=O)c1ccccc1` [Compound 5], for which the TEER under setting [4] was 804 Ωcm^2, the TEER under setting [5] is 1070 Ωcm^2, the TEER under setting [6] is listed as 337 Ωcm^2 and the TEER under setting [7] is given as 614 Ωcm^2.
`CC(C)(O/N=C(/C(=O)N[C@@H]1C(=O)N2C(C(=O)[O-])=C(C[n+]3ccccc3)CS[C@H]12)c1csc(N)n1)C(=O)NCCCCCCOCCCCc1ccccc1` [Compound 6]: the TEER is on record as 464 Ωcm^2 under setting [4], 676 Ωcm^2 under setting [5], 372 Ωcm^2 under setting [6] and 448 Ωcm^2 under setting [7].
With `COCCOCCOCCNC(=O)C(C)(C)O/N=C(/C(=O)N[C@@H]1C(=O)N2C(C(=O)[O-])=C(C[n+]3ccccc3)CS[C@H]12)c1csc(N)n1` [Compound 7], the TEER under setting [4] is recorded as 1197 Ωcm^2, the TEER under setting [5] is given as 950 Ωcm^2, the TEER under setting [6] was 306 Ωcm^2 and the TEER under setting [7] is recorded as 578 Ωcm^2.
As for `COCCOCCOCCOCCOCCNC(=O)C(C)(C)O/N=C(/C(=O)N[C@@H]1C(=O)N2C(C(=O)[O-])=C(C[n+]3ccccc3)CS[C@H]12)c1csc(N)n1` [Compound 8], the TEER reads like this: under setting [1], 840 Ωcm^2; under setting [2], 630 Ωcm^2; under setting [3], 880 Ωcm^2.
The matching figures for `COCCOCCOCCOCCOCCOCCOCCOCCNC(=O)C(C)(C)O/N=C(/C(=O)N[C@@H]1C(=O)N2C(C(=O)[O-])=C(C[n+]3ccccc3)CS[C@H]12)c1csc(N)n1` [Compound 9]: 950 Ωcm^2, 700 Ωcm^2 and 950 Ωcm^2.
For `CC(C)(O/N=C(/C(=O)N[C@@H]1C(=O)N2C(C(=O)[O-])=C(C[n+]3ccccc3)CS[C@H]12)c1csc(N)n1)C(=O)NC1C(O)O[C@H](CO)[C@@H](O)[C@@H]1O` (stereo partly shown) [Compound 10], the TEER runs as follows: under setting [4], 858 Ωcm^2; under setting [5], 919 Ωcm^2; under setting [6], 313 Ωcm^2; under setting [7], 388 Ωcm^2.
As to `CCN(CC)CCNC(=O)C(C)(C)O/N=C(/C(=O)N[C@@H]1C(=O)N2C(C(=O)[O-])=C(C[n+]3ccccc3)CS[C@H]12)c1csc(N)n1` [Compound 11], the TEER reads like this: under setting [1], 950 Ωcm^2; under setting [2], 630 Ωcm^2; under setting [3], 940 Ωcm^2.
`CN1CCN(CCNC(=O)C(C)(C)O/N=C(/C(=O)N[C@@H]2C(=O)N3C(C(=O)[O-])=C(C[n+]4ccccc4)CS[C@H]23)c2csc(N)n2)CC1` [Compound 12]: the TEER is, setting by setting: under setting [4], 1002 Ωcm^2; under setting [5], 1194 Ωcm^2; under setting [6], 495 Ωcm^2; under setting [7], 585 Ωcm^2.
For `CC(C)(O/N=C(/C(=O)N[C@@H]1C(=O)N2C(C(=O)[O-])=C(C[n+]3ccccc3)CS[C@H]12)c1csc(N)n1)C(=O)NC(CCC(=O)O)C(=O)O` (stereo partly shown) [Compound 13] the same measures were 672 Ωcm^2, 818 Ωcm^2, 245 Ωcm^2 and 864 Ωcm^2.
Regarding `CC(C)(O/N=C(/C(=O)N[C@@H]1C(=O)N2C(C(=O)[O-])=C(C[n+]3ccccc3)CS[C@H]12)c1csc(N)n1)C(=O)NCCNc1ccnc(N)n1` [Compound 14], the TEER is, setting by setting: under setting [4], 734 Ωcm^2; under setting [5], 1076 Ωcm^2; under setting [6], 429 Ωcm^2; under setting [7], 451 Ωcm^2.
As for `CC(C)(O/N=C(/C(=O)N[C@@H]1C(=O)N2C(C(=O)[O-])=C(C[n+]3ccccc3)CS[C@H]12)c1csc(N)n1)C(=O)NCCOCCOCCOCCOCCOCCNc1ccnc(N)n1` [Compound 15, PEG5-pyrimidin-2-amine-ceftazidime], the TEER was 870 Ωcm^2 under setting [1], 720 Ωcm^2 under setting [2] and 930 Ωcm^2 under setting [3].
Consider `CC(C)(O/N=C(/C(=O)N[C@@H]1C(=O)N2C(C(=O)[O-])=C(C[n+]3ccccc3)CS[C@H]12)c1csc(N)n1)C(=O)NCCCSc1ccc(B(O)O)cc1` [Compound 16, 4-propylthiophenyl boronic acid-ceftazidime], for which the TEER is reported as 775 Ωcm^2 under setting [4], 933 Ωcm^2 under setting [5], 410 Ωcm^2 under setting [6] and 691 Ωcm^2 under setting [7].
On to `CC(C)(O/N=C(/C(=O)N[C@@H]1C(=O)N2C(C(=O)[O-])=C(C[n+]3ccccc3)CS[C@H]12)c1csc(N)n1)C(=O)NCCCS(=O)(=O)c1ccc(B(O)O)cc1` [Compound 17], for which the TEER runs as follows: under setting [4], 857 Ωcm^2; under setting [5], 1019 Ωcm^2; under setting [6], 486 Ωcm^2; under setting [7], 502 Ωcm^2.
In the case of `CC(C)(O/N=C(/C(=O)N[C@@H]1C(=O)N2C(C(=O)[O-])=C(C[n+]3ccccc3)CS[C@H]12)c1csc(N)n1)C(=O)NCCNC(=O)c1ccc(B(O)O)cc1` [Compound 18], the TEER under setting [4] is 795 Ωcm^2, the TEER under setting [5] is listed as 1019 Ωcm^2, the TEER under setting [6] was 255 Ωcm^2 and the TEER under setting [7] is listed as 421 Ωcm^2.
